Laboratory results from US20160046678A1 (ZYNGENIA, published 2016).
Results are given in words; binding and its absence hold for the method and conditions named. Some results given as binding are weak or reduced against the parent protein; the word gives no strength.

The chains behind the UniProt entries cited, without tags or fusion partners. Residues count along the entry.
UniProt P05231, residues 30-212: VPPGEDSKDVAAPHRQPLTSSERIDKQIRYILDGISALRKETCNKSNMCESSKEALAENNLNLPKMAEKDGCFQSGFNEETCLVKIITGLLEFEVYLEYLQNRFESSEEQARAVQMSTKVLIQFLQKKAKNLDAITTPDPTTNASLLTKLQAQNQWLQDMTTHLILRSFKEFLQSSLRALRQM

The binders below were run against IL6 (UniProt P05231) (assay: MRD identification, Example 48).

Binder | binding
SISRAFSCVWDPLLMNCS [ILB317] | binds
LVPYSWYCVWDPLLMDCV [ILB320] | binds
DNWSISSCYWDPLLMNCP [ILB302] | binds
LVSFCAWDPLLMNCMWPM [ILB312] | binds
FCSWDPMLMDCSTITFDM [ILB324] | binds
VNVSFWGCVWDPLLMVCS [ILB333] | binds
LAGSVSGTLLQQTVQRT [ILB311] | binds
LTGYCYWDPLLMNCLEQG [ILB330] | binds
MTQSLSFCHWDPLLMYCV [ILB319] | binds
LFTMCHWDPLLMDCATVP [ILB323] | binds
LYGECAWDPLLMRCQPYY [ILB313] | binds
NAPVWVECMWDPLLMSCV [ILB307] | binds
GLYNCTWDPLLMRCSESI [ILB300] | binds
LDFSFFDCSWDPLLMRCS [ILB305] | binds
SDNLYFDCHWDPLLMMCR [ILB321] | binds
PDTLCIWDPLLMQCRWMP [ILB332] | binds
GSKRFGICFWDPLLMDCA [ILB314] | binds
SVQYETPCYWDPLRMQCQ [ILB304] | binds

Second part, the binder after the results:

binding | Binder
binds | GYAWCFWDPLLMKCTWQV [ILB308]
binds | FEDSCAWDPLLMACSNPI [ILB310]
binds | NHPMCWWDPLMMDCMYFE [ILB331]
binds | DDFLCSWDPLLMDCMVYP [ILB309]
binds | GSTCCVWDPLLMKCMSPV [ILB299]
binds | GFGSSWFCSWDPLLMQCQ [ILB316]
binds | FRMKKVDCCWDPLLMNCR [ILB306]
binds | YVAVGPSCLWDPLLMMCA [ILB315]
binds | WFLFPWTCPWDPLLMECI [ILB303]
binds | TQMYCWWDPLLMNCTEMS [ILB329]
